# In paper PMC5996148:
# This is one part of the list. For some assays here: Construct or isoform of the protein are uncertain.
# Experiments:
# Experiment in all cases: protein microarray (ProtoArray v5.0), streptavidin-Alexa Fluor 647
# Conditions in all cases: 3'-biotin; 20 mM Tris (pH 7.5), 5 mM MgCl2, 100 mM KCl, 0.1% Tween-20, A/T-rich and random oligonucleotide blockers; temperature not stated; high values mean tight binding
# [1] = target: T1, TSC22D1 (UniProt Q15714)
# T1 sequence: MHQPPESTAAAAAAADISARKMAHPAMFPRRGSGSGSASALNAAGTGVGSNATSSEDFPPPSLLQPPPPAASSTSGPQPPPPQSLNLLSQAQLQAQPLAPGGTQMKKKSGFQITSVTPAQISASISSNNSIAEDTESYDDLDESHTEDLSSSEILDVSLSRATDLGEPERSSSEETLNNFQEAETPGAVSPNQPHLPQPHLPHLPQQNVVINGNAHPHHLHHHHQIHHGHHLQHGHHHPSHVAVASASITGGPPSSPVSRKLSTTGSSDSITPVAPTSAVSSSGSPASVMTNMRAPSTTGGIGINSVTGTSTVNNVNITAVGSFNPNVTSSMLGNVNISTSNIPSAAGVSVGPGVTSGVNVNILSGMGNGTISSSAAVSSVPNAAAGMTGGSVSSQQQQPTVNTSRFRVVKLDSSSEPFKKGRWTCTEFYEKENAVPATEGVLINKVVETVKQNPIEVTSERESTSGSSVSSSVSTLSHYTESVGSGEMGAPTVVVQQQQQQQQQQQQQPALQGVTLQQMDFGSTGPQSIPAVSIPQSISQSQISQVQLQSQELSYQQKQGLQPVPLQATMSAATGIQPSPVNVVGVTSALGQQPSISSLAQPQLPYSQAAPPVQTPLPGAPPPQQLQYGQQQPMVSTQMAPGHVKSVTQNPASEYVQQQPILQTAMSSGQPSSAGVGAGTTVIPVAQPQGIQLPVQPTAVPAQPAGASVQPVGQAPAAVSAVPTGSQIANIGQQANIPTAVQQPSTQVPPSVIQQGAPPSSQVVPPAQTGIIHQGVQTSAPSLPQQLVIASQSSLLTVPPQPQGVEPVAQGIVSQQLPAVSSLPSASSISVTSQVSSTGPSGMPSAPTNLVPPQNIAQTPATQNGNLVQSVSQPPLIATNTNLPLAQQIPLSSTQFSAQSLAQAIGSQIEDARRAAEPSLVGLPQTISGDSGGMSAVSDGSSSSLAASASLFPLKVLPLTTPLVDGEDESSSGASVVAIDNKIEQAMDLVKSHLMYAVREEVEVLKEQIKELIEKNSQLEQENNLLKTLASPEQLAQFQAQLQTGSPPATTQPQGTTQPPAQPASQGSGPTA
# [2] = tested on: TSC22D3 (human)
# [3] = tested on: TSNAXIP1 (human)
# [4] = tested on: TSPAN12 (human)
# [5] = tested on: TSPAN17 (human)
# [6] = target: T2, TSPAN5 (UniProt P62079)
# T2 sequence: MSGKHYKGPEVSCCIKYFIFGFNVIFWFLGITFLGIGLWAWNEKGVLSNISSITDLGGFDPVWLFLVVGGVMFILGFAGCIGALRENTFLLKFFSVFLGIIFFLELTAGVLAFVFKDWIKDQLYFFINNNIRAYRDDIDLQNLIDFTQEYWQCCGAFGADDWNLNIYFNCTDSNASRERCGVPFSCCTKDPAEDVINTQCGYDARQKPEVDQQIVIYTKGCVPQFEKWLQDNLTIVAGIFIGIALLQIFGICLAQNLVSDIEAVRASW
# [7] = tested on: TSPY2 (human)
# [8] = tested on: TSR2 (human)
# [9] = tested on: TSSK3 (human)
# [10] = tested on: TSTA3 (human)
# [11] = tested on: TTC1 (human)
# [12] = tested on: TTC32 (human)
# [13] = tested on: TTC8 (human)
# [14] = tested on: TTR (human)
# [15] = tested on: TTYH2 (human)
# [16] = tested on: TUBA1C (human)
# [17] = tested on: TUBA3E (human)
# [18] = tested on: TUBB (human)
# [19] = target: T3, TUBE1 (UniProt Q9UJT0)
# T3 sequence: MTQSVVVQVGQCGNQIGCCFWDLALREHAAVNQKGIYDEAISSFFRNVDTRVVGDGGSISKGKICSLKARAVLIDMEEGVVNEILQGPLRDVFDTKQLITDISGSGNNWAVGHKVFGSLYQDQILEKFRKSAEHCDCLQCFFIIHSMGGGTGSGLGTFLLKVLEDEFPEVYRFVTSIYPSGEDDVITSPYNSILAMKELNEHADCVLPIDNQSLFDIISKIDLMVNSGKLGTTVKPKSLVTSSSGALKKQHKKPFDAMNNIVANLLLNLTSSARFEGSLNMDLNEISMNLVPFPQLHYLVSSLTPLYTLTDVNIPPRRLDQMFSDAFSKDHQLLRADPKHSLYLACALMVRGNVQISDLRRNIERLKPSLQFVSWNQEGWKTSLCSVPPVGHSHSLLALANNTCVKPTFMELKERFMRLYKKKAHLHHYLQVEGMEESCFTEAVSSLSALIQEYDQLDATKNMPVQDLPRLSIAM
# [20] = tested on: TWSG1 (human)
sequence,measurement,setting,value
GGGAGGCTGAGGCAGG [G4-1 biotinylated (PQS2)],binding signal,[1],-0.335 z-score
same,binding signal,[2],-0.347 z-score
same,binding signal,[3],-0.351 z-score
same,binding signal,[4],-0.341 z-score
same,binding signal,[5],-0.326 z-score
same,binding signal,[6],-0.33 z-score
same,binding signal,[7],-0.312 z-score
same,binding signal,[8],-0.329 z-score
same,binding signal,[9],-0.313 z-score
same,binding signal,[10],-0.311 z-score
same,binding signal,[11],-0.354 z-score
same,binding signal,[12],-0.333 z-score
same,binding signal,[13],-0.323 z-score
same,binding signal,[14],-0.308 z-score
same,binding signal,[15],-0.294 z-score
same,binding signal,[16],-0.33 z-score
same,binding signal,[17],-0.339 z-score
same,binding signal,[18],-0.341 z-score
same,binding signal,[19],-0.341 z-score
same,binding signal,[20],-0.259 z-score

# Reprinted at random: 2 entries already listed, in no set order.
sequence,measurement,setting,value
GGGAGGCTGAGGCAGG [G4-1 biotinylated (PQS2)],binding signal,[4],-0.341 z-score
same,binding signal,[18],-0.341 z-score
